Experiment [1] deals with T1, MBP:Anillin (608–940) (human) (UniProt Q9NQW6).
T1 sequence: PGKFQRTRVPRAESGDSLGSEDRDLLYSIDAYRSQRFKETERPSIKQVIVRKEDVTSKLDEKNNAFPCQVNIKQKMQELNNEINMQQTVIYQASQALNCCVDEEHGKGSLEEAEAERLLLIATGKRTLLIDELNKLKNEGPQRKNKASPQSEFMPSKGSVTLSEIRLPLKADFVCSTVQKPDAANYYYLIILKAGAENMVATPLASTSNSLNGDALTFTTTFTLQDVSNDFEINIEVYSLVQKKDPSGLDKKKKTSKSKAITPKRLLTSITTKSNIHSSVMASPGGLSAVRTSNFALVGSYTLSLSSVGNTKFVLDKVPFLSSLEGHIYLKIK
The experiment is described as follows: pull-down; purified MBP- or GST-tagged anillin fragments (200 nM) as bait; lysates of transfected HEK-293 cells; 50 mM Tris pH7.6, 150 mM NaCl, 5 mM MgCl2, 0.5% Triton X-100, 1 mM DTT, 4°C; western blot for Myc; only the target purified. (Immunoblotting shows a protein as a band on a membrane.)

Experiment [2] has as its target T2, GST:Anillin (608–940) (human) (UniProt Q9NQW6).
T2 sequence: T1 sequence
The experiment is described as above.

The target in experiment [3] is T3, GST: Dm anillin (800–1100; AHD) (Drosophila) (UniProt Q9V4P1).
T3 sequence: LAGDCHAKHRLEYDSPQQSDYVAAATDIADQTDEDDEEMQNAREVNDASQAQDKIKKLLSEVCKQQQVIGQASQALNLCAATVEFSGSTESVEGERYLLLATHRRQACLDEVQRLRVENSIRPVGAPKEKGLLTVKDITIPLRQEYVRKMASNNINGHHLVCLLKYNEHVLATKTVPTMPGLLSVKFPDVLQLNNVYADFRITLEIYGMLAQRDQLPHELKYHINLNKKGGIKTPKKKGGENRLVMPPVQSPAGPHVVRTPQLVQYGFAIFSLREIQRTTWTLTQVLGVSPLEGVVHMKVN
The experiment is described as above.

The target in experiment [4] is T4, MBP:Anillin (671–772) (human) (UniProt Q9NQW6).
T4 sequence: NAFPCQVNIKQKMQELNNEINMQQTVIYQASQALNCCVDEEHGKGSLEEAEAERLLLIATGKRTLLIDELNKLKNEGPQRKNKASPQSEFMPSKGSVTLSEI
Described as above.

Experiment [5] addresses T5, MBP:Anillin (772–940) (human) (UniProt Q9NQW6).
T5 sequence: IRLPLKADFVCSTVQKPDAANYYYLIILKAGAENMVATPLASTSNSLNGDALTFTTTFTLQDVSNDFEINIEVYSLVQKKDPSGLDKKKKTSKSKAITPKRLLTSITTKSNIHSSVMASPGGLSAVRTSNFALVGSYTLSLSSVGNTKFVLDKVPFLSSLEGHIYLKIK
The description is as above.

Experiment [6] addresses T1, MBP:Anillin (608–940) (human). The experiment is described as follows: pull-down; in vitro binding of purified recombinant proteins: cleaved Ect2 fragments (0.5 µg and 1.5 µg) in solution with 5 µg MBP:anillin (AHD) on beads, soluble MBP included; 150 µL of 50 mM Tris pH7.6, 150 mM NaCl, 5 mM MgCl2, 0.5% Triton X-100; room temperature 1 hour or 4°C 2 hours; Coomassie-stained gels; both purified.

Experiment [7] has as its target T6, MBP:Anillin (608–1087) (human) (UniProt Q9NQW6).
T6 sequence: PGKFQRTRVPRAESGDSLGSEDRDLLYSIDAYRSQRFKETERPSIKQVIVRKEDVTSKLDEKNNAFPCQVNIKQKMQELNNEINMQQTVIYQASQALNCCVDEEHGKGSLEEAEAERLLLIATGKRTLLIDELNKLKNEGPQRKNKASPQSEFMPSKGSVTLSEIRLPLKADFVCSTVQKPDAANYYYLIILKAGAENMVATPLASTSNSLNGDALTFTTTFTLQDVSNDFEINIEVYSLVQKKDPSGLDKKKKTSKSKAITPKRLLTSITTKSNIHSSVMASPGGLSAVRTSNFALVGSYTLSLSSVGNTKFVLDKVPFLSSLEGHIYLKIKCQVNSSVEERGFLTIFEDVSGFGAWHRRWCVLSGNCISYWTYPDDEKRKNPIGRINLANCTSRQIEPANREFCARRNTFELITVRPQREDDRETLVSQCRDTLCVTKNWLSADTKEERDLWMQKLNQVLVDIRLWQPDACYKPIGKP
The experiment is described as follows: pull-down; purified MBP- or GST-tagged anillin fragments (200 nM) as bait; lysates of transfected HEK-293 cells; 50 mM Tris pH7.6, 150 mM NaCl, 5 mM MgCl2, 0.5% Triton X-100, 1 mM DTT, 4°C; western blot for Myc; only the target purified.

The target of experiment [8] is T7, MBP:Anillin (608–1087; AFAINA) (human) (UniProt Q9NQW6).
T7 sequence: T6 sequence with D230A, E232A, E236A
The experiment is described as above.

In experiment [9] the target is T8, GST:Anillin (820–940) (human) (UniProt Q9NQW6).
T8 sequence: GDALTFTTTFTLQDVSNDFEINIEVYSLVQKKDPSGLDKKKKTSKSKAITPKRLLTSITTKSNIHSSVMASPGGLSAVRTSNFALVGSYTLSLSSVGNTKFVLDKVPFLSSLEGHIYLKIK
Described as above.

In experiment [10] the target is T9, GST:Anillin (890–940) (human) (UniProt Q9NQW6).
T9 sequence: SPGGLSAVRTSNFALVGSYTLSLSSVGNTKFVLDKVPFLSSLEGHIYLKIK
Described as above.

Residue numbers refer to the chain shown, from its start. No constants are given. Whether binding was seen depends on the method and setting. A result given as binding can be weak or reduced; the word gives no strength. Tags and fused reporters may be left off the sequences shown. For some of these results: In cells and extracts the contact can be indirect.

Myc:Ect2 (1–883) (human): the binding result in experiment [1] and in [2] was “binds” in each case.

With “Myc:Pebble (370–853; C-term) (Drosophila) (domain or fragment)”, the binding entry in experiment [2] and in experiment [3] was “no binding (tested: 200 nM)” each time.

Regarding “Myc:Ect2 (622–883) (human) (domain or fragment)”, the results for the binding result in experiment [4], in experiment [1] and in [5] were “binds weakly”, “binds” and “binds”, respectively.

With “Myc:Ect2 (622–774) (human) (domain or fragment)”, the binding result in experiment [1] is listed as “binds”.

On to “recombinant, cleaved Ect2 fragment E4 (DH+PH domains) (human) (domain or fragment)”, for which, in experiment [6], the binding entry is on record as “binds weakly”.

For “Myc:Ect2 (421–621) (human) (domain or fragment)”, the binding result in experiment [1] was “no binding (tested: 200 nM)”.

Turning to “Myc:Ect2 (421–883) (human) (domain or fragment)”, the binding entry is reported as “binds” in experiment [1]; “binds” in experiment [2]; “binds” in experiment [7]; “binds” in experiment [8]; “binds” in [9]; “binds weakly” in [3]. Further, the binding entry in [10] is “binds”.

As for “Myc:Ect2 (421–774) (human) (domain or fragment)”, the binding entry in experiment [1] is recorded as “binds”.

For the substance “Myc:Ect2 (775–883) (human) (domain or fragment)”, the binding entry in experiment [1] was “no binding (tested: 200 nM)”.

Regarding “Myc:Ect2 (1–227) (human) (domain or fragment)”, in experiment [1], the binding result is listed as “no binding (tested: 200 nM)”.

As for “Myc:Ect2 (1–420) (human) (domain or fragment)”, the binding result in [1] and in experiment [2] was “no binding (tested: 200 nM)” each time.

Values taken from PMC3325936.
